Data taken from doi:10.1101/2024.04.01.587542.

Sequences of proteins named here, by UniProt entry; tags and fusion partners are left off. A change or cut given only in a name is not applied to a line headed by its entry.
UniProt P05556: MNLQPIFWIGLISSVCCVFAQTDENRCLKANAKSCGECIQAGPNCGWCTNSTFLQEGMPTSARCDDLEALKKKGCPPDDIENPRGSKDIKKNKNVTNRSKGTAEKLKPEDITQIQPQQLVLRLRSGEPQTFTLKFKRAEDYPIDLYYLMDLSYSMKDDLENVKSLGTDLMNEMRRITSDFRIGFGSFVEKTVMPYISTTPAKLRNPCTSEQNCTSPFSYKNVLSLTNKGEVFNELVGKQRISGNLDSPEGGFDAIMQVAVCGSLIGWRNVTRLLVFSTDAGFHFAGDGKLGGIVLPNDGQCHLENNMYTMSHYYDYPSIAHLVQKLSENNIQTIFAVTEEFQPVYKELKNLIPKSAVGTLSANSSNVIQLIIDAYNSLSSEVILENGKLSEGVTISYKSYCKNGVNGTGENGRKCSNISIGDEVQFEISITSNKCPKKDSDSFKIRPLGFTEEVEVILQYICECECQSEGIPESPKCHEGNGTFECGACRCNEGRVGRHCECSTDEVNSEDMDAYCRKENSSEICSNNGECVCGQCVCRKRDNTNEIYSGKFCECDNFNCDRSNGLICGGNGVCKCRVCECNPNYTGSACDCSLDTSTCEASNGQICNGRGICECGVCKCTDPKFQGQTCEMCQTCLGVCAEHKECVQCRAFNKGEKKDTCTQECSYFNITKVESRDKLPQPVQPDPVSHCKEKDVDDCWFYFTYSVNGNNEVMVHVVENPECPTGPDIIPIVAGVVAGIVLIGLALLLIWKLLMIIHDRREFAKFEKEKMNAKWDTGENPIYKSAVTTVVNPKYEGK
UniProt P14780: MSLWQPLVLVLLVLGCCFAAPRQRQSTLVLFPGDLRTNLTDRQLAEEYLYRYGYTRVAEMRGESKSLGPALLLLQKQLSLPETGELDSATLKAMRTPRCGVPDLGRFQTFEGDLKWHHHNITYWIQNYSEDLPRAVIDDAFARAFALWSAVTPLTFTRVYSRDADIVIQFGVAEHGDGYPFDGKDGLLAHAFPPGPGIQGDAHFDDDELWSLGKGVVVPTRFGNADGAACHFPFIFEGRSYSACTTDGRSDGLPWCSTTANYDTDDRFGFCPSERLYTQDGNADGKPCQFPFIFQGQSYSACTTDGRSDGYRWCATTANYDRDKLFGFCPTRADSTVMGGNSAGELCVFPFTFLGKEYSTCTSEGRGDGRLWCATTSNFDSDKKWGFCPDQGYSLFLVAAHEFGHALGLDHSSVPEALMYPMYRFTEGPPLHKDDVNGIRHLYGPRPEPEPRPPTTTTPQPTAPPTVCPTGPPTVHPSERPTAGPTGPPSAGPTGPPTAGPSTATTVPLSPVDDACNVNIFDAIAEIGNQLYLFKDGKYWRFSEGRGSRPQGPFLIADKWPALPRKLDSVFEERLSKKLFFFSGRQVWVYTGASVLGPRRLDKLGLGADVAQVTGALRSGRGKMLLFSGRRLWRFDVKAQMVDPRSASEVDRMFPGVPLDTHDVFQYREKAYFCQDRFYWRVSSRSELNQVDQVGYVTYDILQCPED

Assays:
[1] = target: integrin β1 (ITGβ1) (human (endogenous in HT1080)) (UniProt P05556); assay: co-IP
[2] = target: integrin β1 (ITGβ1) (human (endogenous in HT1080)) (UniProt P05556); assay: proximity ligation

Row | binding [1] | binding [2] | Substance
1 | binds | binds | Catalytically inactive MMP9 (E402A) fused to eGFP (Δcat) (from UniProt P14780) (enzyme)
2 | binds | binds | MMP9 full-length fused to eGFP (M9FL) (from UniProt P14780) (enzyme)

These are yes or no findings as the source states them, for the method shown. In cells and extracts the contact can be indirect. Binding calls can cover weak binding; strength is not graded here.
